Measured values taken from US20240383942A1, “WATER-SOLUBLE ALLOPR[…], AND PREPARATION METHOD THEREFOR AND USE THEREOF” (NANJING MINOVA PHARMACEUTICAL CO., LTD., priority 2021, published 2024).

Test: In vitro metabolic study in human liver microsome incubation system
Settings: human liver microsomes 0.5 mg protein/mL, NADPH, 37° C.
Protocol: Instruments, conditions and parameters: liquid chromatography-mass spectrometry system (LC/MS/MS, Shimadzu LC 30-AD, MS API 4000); the chromatographic column was ACQUITY UPLC BEH C18 column (1.7 μm 2.1×50 mm Column, Part No. 186002350); the mobile phase was acetonitrile-water-formic acid (50:50:0.1); the flow rate was 0.7 mL/min; the injection volume was 5μL; the column temperature was room temperature. An electrospray ionization (ESI) source was adopted with a spray voltage of 4.8 KV; the capillary temperature (TEM) was 300° C.; the sheath gas was N2, and the flow rate was 10 psi; the auxiliary gas was N2, and the flow rate was 1 psi; the collision-induced dissociation (CID) gas was Ar, and the pressure was 1.5 mTorr. The mass spectrometry scan mode was mass spectrometry multiple reaction monitoring (MRM), and the positive ion mode was used for detection.
About 10 mg of each of the samples to be tested was precisely weighed out and dissolved in 0.1 mL of DMSO, and the solution was stepwise diluted with purified water to prepare 10 μM and 1 μM standard stock solutions. In an ice bath, the detection incubation system was prepared according to Table 3. NADPH was added to the incubation system (see Table 4 for its composition) to start a reaction, and 50 μL of the resulting mixture was taken immediately and added to 150 μL of acetonitrile as a time-zero sample and a 1 μM standard curve sample. Another 1 μM standard stock solution was added to the incubation system, and 50 μL of the resulting mixture was taken immediately and added to 150 μL of acetonitrile as a 0.1 μM standard curve sample. […] Each sample was shaken and centrifuged at 18,000 g for 10 min, and a sample of the supernatant was taken and injected for LC/MS/MS analysis.

In the case of `CCCNCC(O)COc1ccccc1C(=O)CCc1ccccc1` (stereo not drawn) [Propafenone, propafenone], the “Concentration of the compound to be tested (parent)” value (“Concentration of the compound” below) (incubation time 0 min) is reported as 1000 nM, the “Concentration of the compound” value (incubation time 5 min) is reported as 851 nM and the “Concentration of the compound” value (incubation time 15 min) is reported as 597 nM. For the same molecule, the “Concentration of the compound” value (incubation time 30 min) was 232 nM, the “Concentration of the compound” value (incubation time 45 min) was 25 nM and the “Concentration of the compound” value (incubation time 60 min) was 4 nM.
